Article PMC12617877
No constants are given. Whether binding was seen depends on the method and setting. Binding seen in cells or lysates may run through a third protein. Some results given as binding are weak or reduced against the parent protein; the word gives no strength. Sequences can lack the tags named with a protein.

Protein sequences, listed by entry. Tags and fused reporters are not part of them.
UniProt P17844: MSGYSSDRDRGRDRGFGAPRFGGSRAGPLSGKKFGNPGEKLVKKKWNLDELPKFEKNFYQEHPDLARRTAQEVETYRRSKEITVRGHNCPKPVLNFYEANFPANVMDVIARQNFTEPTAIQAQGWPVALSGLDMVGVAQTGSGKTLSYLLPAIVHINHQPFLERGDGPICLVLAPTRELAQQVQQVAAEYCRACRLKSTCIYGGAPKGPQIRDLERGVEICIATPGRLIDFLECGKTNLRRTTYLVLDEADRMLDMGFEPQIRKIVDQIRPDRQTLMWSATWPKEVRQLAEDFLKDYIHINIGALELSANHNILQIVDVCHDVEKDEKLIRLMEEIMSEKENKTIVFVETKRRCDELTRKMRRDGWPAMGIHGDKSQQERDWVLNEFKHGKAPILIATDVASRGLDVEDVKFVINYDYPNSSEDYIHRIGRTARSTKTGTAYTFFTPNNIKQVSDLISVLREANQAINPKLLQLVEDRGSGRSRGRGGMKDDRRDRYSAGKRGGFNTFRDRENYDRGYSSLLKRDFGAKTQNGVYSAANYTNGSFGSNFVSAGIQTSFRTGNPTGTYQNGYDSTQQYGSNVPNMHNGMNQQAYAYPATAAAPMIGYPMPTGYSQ

Target: T1, RBM39-Flag (RNA-binding Motif Protein 39, Flag-tagged) (human (cDNA from Jurkat cell mRNA)) (UniProt Q14498)
T1 sequence: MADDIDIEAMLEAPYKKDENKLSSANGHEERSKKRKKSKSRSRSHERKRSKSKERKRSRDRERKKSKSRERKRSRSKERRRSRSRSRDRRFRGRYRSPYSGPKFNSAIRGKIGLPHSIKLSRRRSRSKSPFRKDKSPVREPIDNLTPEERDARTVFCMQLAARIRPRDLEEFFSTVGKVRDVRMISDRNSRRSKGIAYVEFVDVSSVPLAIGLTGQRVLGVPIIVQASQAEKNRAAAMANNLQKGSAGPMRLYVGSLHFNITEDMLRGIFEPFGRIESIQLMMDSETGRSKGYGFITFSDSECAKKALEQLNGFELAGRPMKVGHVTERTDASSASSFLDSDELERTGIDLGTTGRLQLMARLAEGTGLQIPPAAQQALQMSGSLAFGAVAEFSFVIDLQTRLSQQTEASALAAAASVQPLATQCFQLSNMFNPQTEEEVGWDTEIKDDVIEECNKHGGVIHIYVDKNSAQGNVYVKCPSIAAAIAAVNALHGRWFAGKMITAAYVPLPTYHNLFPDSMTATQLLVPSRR
Test: co-IP; HEK293T transfected with RBM39-Flag or YTHDC1-Flag and DDX5-HA or GFP-HA (control), 48 h; lysates immunoprecipitated with Flag beads, immunoblot; NP-40 lysis buffer

binding: binds
Substance: DDX5-HA (from UniProt P17844 1-614)
